# Data as given in patent publication US20100304462.
# Where a protein sequence is shown, tags need not be part of it.
# How the values were obtained:
# Assay in all cases: enzyme reaction in vitro
# [1] = tested on: T1, PlaDI (Parvibaculum lavamentivorans); details: cuts N20/N18; protein in a lysate after overexpression
# T1 sequence (limits assumed): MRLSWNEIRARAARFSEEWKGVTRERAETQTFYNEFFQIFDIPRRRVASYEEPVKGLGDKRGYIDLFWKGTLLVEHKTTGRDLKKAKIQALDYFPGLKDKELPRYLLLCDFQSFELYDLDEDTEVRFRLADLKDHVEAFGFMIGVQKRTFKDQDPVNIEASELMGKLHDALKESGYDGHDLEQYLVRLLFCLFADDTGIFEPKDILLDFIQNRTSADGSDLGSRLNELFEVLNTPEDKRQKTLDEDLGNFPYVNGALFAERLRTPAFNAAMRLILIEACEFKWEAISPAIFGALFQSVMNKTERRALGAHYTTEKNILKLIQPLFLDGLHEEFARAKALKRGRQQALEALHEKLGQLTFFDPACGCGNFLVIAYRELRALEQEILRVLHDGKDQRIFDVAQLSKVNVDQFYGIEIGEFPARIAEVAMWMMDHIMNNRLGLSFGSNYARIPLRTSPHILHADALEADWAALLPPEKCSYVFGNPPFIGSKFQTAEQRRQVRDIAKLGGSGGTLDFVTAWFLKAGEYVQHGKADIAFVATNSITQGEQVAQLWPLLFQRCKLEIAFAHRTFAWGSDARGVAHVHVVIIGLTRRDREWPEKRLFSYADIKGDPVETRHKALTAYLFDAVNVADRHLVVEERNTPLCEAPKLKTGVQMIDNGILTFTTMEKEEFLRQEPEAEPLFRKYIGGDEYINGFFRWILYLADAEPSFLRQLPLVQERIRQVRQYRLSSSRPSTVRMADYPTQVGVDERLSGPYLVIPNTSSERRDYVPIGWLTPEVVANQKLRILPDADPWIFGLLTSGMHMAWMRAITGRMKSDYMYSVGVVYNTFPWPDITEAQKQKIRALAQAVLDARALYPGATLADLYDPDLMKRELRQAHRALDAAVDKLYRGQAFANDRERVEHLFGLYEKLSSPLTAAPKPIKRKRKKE
# GauT27I = tested on: T2, GauT27I; details: cuts 19/17; protein in a lysate after overexpression
# T2 sequence (limits assumed): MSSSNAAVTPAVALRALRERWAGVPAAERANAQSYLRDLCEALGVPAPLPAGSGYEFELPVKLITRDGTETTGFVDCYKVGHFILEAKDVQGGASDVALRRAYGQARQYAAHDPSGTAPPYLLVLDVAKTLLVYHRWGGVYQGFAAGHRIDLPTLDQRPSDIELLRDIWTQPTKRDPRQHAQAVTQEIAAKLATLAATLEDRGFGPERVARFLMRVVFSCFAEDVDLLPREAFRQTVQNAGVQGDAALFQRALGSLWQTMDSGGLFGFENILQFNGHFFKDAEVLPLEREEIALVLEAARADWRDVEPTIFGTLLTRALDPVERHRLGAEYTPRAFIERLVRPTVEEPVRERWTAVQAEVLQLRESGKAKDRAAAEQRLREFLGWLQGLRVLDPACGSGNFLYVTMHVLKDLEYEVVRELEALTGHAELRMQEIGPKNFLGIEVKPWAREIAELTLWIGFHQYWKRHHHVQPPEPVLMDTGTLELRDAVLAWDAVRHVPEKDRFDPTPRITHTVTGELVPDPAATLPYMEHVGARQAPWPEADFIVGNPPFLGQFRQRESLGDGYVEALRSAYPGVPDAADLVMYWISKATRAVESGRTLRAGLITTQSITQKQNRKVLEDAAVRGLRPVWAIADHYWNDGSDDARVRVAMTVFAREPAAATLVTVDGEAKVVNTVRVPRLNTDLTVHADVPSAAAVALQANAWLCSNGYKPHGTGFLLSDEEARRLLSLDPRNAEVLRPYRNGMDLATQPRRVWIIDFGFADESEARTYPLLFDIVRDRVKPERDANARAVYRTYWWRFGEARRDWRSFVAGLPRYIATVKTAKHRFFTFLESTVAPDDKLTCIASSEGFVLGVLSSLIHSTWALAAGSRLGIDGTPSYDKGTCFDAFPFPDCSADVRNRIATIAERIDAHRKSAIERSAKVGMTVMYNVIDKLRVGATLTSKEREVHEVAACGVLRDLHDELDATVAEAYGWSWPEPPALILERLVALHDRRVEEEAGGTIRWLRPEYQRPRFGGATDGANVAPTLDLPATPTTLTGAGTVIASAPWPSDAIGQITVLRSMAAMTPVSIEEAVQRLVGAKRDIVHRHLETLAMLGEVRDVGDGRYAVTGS
# [2] = tested on: T3, AquIII (Agmenellum quadruplicatum); details: cuts N20/N18; protein in a lysate after overexpression
# T3 sequence (limits assumed): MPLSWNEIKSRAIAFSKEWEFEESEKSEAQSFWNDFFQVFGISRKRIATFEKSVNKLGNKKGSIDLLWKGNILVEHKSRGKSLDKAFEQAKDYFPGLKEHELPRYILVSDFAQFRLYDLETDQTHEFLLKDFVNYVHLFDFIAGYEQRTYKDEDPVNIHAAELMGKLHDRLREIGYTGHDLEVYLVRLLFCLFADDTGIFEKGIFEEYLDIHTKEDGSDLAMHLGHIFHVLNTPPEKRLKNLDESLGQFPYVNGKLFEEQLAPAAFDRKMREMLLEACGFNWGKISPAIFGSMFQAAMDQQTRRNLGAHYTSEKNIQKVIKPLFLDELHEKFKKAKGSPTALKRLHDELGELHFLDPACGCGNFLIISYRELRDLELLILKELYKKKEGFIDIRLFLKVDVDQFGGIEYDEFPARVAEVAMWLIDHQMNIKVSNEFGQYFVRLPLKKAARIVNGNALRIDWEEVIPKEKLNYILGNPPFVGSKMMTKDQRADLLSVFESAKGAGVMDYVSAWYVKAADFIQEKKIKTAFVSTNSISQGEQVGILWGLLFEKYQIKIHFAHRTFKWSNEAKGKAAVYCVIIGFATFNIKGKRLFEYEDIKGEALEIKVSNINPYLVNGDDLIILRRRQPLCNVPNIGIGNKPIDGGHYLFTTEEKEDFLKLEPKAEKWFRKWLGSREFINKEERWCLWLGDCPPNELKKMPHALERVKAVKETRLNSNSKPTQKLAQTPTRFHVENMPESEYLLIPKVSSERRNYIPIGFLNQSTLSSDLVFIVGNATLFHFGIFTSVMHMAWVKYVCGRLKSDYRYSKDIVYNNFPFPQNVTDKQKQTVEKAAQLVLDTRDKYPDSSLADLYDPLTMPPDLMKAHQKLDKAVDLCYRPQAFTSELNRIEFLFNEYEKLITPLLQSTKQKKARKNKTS
# [3] = tested on: T4, CdpI (Corynebacterium diphtheriae); details: cuts N20/N18; protein in a lysate after overexpression
# T4 sequence (limits assumed): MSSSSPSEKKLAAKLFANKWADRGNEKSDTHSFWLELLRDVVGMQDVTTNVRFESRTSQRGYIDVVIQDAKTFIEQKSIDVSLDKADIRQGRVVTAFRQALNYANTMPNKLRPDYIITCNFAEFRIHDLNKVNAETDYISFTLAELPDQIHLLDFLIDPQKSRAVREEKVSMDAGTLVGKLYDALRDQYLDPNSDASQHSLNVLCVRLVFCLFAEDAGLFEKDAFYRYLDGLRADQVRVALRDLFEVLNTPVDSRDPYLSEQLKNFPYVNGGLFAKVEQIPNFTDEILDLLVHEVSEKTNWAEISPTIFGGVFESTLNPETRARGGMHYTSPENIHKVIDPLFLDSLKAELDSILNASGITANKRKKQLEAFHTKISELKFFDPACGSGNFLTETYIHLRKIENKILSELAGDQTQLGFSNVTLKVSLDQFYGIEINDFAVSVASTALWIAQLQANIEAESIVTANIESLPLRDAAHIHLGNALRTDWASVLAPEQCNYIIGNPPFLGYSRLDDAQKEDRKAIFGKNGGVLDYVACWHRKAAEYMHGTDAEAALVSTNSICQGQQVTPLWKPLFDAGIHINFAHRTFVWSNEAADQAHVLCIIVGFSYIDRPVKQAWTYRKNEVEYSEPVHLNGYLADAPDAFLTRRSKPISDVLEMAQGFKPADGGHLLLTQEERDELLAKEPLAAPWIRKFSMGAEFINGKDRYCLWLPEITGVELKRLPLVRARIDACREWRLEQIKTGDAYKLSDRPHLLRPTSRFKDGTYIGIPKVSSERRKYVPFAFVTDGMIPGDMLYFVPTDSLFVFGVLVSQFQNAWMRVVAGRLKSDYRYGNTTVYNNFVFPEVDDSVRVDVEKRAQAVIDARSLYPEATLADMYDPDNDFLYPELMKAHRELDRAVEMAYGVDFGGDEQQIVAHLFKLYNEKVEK
# [4] = tested on: T5, DrdIV (Deinococcus radiodurans NEB479); details: elsewhere DrdIV is grouped as recognizing C at position 6; protein in a lysate after overexpression
# T5 sequence (limits assumed): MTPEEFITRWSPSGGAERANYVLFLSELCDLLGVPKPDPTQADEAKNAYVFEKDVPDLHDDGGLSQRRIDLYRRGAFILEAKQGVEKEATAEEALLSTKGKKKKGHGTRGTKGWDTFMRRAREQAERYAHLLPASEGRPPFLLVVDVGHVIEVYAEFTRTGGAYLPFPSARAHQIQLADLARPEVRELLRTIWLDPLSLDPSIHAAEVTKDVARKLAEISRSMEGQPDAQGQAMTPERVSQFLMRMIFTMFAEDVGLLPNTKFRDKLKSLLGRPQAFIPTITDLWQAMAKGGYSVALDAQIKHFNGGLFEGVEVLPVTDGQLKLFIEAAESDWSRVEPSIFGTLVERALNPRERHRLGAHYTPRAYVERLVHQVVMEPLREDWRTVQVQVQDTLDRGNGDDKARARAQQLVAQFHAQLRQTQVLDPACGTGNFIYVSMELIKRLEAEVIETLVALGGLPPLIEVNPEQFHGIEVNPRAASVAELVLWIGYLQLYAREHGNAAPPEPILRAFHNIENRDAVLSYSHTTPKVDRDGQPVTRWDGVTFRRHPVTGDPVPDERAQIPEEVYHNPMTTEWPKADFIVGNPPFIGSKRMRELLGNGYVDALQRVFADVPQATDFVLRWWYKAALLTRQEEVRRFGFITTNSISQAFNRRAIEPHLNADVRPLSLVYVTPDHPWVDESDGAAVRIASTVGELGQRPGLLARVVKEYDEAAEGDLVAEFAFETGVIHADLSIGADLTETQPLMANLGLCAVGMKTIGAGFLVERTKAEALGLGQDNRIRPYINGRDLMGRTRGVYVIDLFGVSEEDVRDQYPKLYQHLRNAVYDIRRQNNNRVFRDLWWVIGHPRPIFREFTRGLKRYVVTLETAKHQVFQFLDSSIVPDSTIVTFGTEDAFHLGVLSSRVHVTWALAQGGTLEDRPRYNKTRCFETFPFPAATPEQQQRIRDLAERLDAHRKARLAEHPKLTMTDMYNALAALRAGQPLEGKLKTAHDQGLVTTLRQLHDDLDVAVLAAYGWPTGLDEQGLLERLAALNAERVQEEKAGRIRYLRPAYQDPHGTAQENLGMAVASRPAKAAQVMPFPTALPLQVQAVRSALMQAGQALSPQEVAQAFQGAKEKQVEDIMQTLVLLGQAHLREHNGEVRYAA
# [5] = tested on: T6, PspOMII (Pseudomonas species OM2164); details: elsewhere PspOMII is said to recognize R at position 6; protein in a lysate after overexpression
# T6 sequence (limits assumed): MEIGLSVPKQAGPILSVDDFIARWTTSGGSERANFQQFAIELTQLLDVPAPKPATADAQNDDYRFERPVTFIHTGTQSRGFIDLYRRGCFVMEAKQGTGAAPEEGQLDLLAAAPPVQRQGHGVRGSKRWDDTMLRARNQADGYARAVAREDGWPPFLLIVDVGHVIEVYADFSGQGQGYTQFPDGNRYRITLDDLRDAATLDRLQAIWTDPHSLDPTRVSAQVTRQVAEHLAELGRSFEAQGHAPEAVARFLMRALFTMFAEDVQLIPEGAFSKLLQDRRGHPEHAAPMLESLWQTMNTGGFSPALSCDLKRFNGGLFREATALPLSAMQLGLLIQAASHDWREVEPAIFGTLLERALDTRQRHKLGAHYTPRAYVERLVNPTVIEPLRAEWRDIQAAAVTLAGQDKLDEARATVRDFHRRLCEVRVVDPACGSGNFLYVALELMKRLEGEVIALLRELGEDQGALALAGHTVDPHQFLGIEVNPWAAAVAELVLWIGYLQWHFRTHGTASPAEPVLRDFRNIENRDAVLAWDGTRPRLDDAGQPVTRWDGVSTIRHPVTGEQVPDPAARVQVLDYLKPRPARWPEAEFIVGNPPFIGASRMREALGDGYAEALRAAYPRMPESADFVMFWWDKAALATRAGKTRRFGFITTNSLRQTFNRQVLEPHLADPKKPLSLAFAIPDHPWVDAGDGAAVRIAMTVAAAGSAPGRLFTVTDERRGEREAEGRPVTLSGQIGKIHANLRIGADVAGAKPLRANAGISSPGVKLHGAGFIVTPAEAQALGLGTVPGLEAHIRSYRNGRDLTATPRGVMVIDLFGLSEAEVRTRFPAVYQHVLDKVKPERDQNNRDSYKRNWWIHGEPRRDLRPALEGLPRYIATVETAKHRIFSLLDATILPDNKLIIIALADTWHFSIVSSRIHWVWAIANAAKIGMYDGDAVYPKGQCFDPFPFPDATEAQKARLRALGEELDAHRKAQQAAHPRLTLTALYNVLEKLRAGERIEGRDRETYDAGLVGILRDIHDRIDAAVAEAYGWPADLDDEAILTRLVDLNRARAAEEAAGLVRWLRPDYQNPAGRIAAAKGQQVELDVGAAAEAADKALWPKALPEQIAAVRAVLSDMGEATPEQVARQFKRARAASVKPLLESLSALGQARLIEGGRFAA
sequence,measurement,setting,value
CATCAG (double strand) [PlaDI site],activity on this sequence,[1],active
CGCGCAGG (double strand) [GauT27I site],activity on this sequence,GauT27I,active
GAGGAG (double strand) [AquIII site],activity on this sequence,[2],active
GCGGAG (double strand) [CdpI site],activity on this sequence,[3],active
same,activity on this sequence,[4],active
same,activity on this sequence,[5],active
